Results published in patent publication US12729225B2, “Non-canonical SWI/SNF complex and uses thereof” (Dana-Farber Cancer Institute, Inc., priority 2018, dated 2026).

Tested on: mSWI/SNF complexes
Experiment: mSWI/SNF complex purification with HA-tagged baits and mass spectrometry (peptide counts)
Set-up: species or system human
[1] = 293_HA-BRD7: HA-BRD7 bait purification, total peptide count per co-purified protein
[2] = 293_HA-BRD7: HA-BRD7 bait purification, unique peptide count per co-purified protein
[3] = 293_HA-DPF2 purification, total peptides
[4] = 293_HA-DPF2 purification, unique peptides
[5] = total peptide count of the co-purified protein, 293_HA-BRD9 (HA-BRD9 bait, mass spectrometry), Table 3b
[6] = unique peptide count of the co-purified protein, 293_HA-BRD9 (HA-BRD9 bait, mass spectrometry), Table 3b
[7] = 293_HA-BRD7 bait purification, mass spectrometry, total peptides per co-purified protein
[8] = 293_HA-BRD7 bait purification, mass spectrometry, unique peptides per co-purified protein
[9] = 293_HA-BRD7 bait purification, mass spectrometry, total peptide count per identified protein
[10] = 293_HA-BRD7 bait purification, mass spectrometry, unique peptide count per identified protein

For SMARCC1, which Total [1] is on record?
Its Total is 203.

And the Unique [2]?
The Unique was 83.

What about the Total [3] of the same substance?
Its Total is 359.

What about the Unique [4] of the same substance?
Its Unique is 87.

What about the Total [5] of the same substance?
Its Total is 53.

And the Unique [6]?
Its Unique is 36.

What does the source list for SMCHD1?
Total [7]: 2; Unique [8]: 2

Which results are given for SNIP1?
Total [9]: 1; Unique [10]: 1

With SNRNP70 as the substance, how does the Total [7] read?
The Total was 2.

And the Unique [8]?
The Unique was 2.

For SNRNP200, which Total [1] is on record?
Its Total is 20.

What about the Unique [2] of the same substance?
The Unique was 18.

How did the Total [3] turn out when SOX21 was run?
Its Total is 1.

What about the Unique [4] of the same substance?
Its Unique is 1.

Which results are given for SP1?
Total [7]: 1; Unique [8]: 1

What does the source list for SPTAN1?
Total [7]: 3; Unique [8]: 3

With SPTLC1 as the substance, how does the Total [7] read?
The Total was 3.

And the Unique [8]?
The Unique was 3.

With SRP54 as the substance, how does the Total [9] read?
Its Total is 1.

What about the Unique [10] of the same substance?
The Unique was 1.

Which results are given for SRSF1?
Total [9]: 1; Unique [10]: 1

Which Total [9] does the source give for SSRP1 here?
Its Total is 1.

And the Unique [10]?
Its Unique is 1.

And the Total [5]?
The Total was 1.

And the Unique [6]?
Its Unique is 1.

Which Total [7] does the source give for SUCLG1 here?
Its Total is 3.

What about the Unique [8] of the same substance?
Its Unique is 3.

What does the source list for SUMO2?
Total [9]: 1; Unique [10]: 1

SUPT16H was tested. Which Total [7] did it give?
The Total was 2.

What about the Unique [8] of the same substance?
Its Unique is 2.

With TAF5L as the substance, how does the Total [9] read?
Its Total is 1.

What about the Unique [10] of the same substance?
The Unique was 1.

With TARDBP as the substance, how does the Total [1] read?
Its Total is 4.

What about the Unique [2] of the same substance?
The Unique was 4.

With TECR as the substance, how does the Total [7] read?
Its Total is 4.

And the Unique [8]?
The Unique was 4.

TFAM was tested. Which Total [7] did it give?
Its Total is 4.

And the Unique [8]?
Its Unique is 4.

For TIMM50, which Total [1] is on record?
The Total was 5.

And the Unique [2]?
The Unique was 5.

What does the source list for TM9SF2?
Total [9]: 1; Unique [10]: 1

How did the Total [7] turn out when TMA16 was run?
Its Total is 2.

And the Unique [8]?
The Unique was 2.

Which results are given for “TOMM7 (MVKLSKEAKQRLQQLFKGSQFAIRWGFIPLVIYLGFKRGADPGMPEPTVLSLLWG; UniProt Q9P0U1 1-55, looked up)”?
Total [9]: 1; Unique [10]: 1

For TOMM40, which Total [9] is on record?
The Total was 1.

And the Unique [10]?
The Unique was 1.

How did the Total [9] turn out when TOR1AIP1 was run?
Its Total is 1.

And the Total [7]?
Its Total is 3.

And the Unique [10]?
Its Unique is 1.

What about the Unique [8] of the same substance?
The Unique was 3.

How did the Total [7] turn out when TPR was run?
Its Total is 4.

And the Unique [8]?
The Unique was 4.

What does the source list for TRIM21?
Total [7]: 2; Unique [8]: 2

With TUBA1B as the substance, how does the Total [9] read?
Its Total is 1.

What about the Unique [10] of the same substance?
The Unique was 1.

What does the source list for TUBB?
Total [1]: 5; Unique [2]: 5; Total [3]: 1; Unique [4]: 1; Total [5]: 2; Unique [6]: 1

TUBB2A was tested. Which Total [1] did it give?
The Total was 20.

And the Unique [2]?
The Unique was 16.

And the Total [3]?
The Total was 3.

And the Unique [4]?
Its Unique is 3.

What about the Total [5] of the same substance?
Its Total is 2.

What about the Unique [6] of the same substance?
Its Unique is 2.

Which Total [9] does the source give for TUBB2B here?
Its Total is 1.

And the Unique [10]?
Its Unique is 1.

With TUBB3 as the substance, how does the Total [1] read?
Its Total is 5.

What about the Unique [2] of the same substance?
The Unique was 4.

What about the Total [9] of the same substance?
Its Total is 1.

What about the Unique [10] of the same substance?
The Unique was 1.

What about the Total [5] of the same substance?
The Total was 1.

What about the Unique [6] of the same substance?
Its Unique is 1.

Which results are given for TUBB4B?
Total [9]: 1; Unique [10]: 1; Total [5]: 1; Unique [6]: 1

Which Total [7] does the source give for VCP here?
The Total was 2.

What about the Unique [8] of the same substance?
The Unique was 2.

For VDAC1, which Total [1] is on record?
Its Total is 6.

And the Unique [2]?
Its Unique is 5.

What does the source list for VIM?
Total [1]: 8; Unique [2]: 8; Total [3]: 2; Unique [4]: 2; Total [5]: 1; Unique [6]: 1

With WWP1 as the substance, how does the Total [7] read?
Its Total is 2.

What about the Unique [8] of the same substance?
The Unique was 2.

XRCC5 was tested. Which Total [1] did it give?
Its Total is 9.

What about the Unique [2] of the same substance?
The Unique was 8.

Which Total [1] does the source give for XRCC6 here?
Its Total is 8.

What about the Unique [2] of the same substance?
Its Unique is 8.

With YARS as the substance, how does the Total [7] read?
Its Total is 3.

And the Unique [8]?
The Unique was 3.

What does the source list for YWHAQ?
Total [7]: 1; Unique [8]: 1

Which results are given for ZIK1?
Total [9]: 1; Unique [10]: 1

Which Total [1] does the source give for ZNF638 here?
The Total was 10.

What about the Unique [2] of the same substance?
Its Unique is 10.

For ZNF768, which Total [1] is on record?
The Total was 8.

And the Unique [2]?
The Unique was 8.
